This test concerns SVG-A cells. Kind of test: Total cell number (DAPI+ events) / cytotoxicity in the JCV infectivity assay. The note with it: Homo sapiens, read-out: % Inhibition total Cell Number @10 uM. The procedure:
SV40 transformed glial cells were seeded in 10% FBS media. The cells were seeded at 2000 cells per well in 75 μl of media per well. On day 2, the media was removed and replaced by 35 μl of a 1× concentrated drug aliquot combined with a 100× diluted JCV Turbo aliquot in 35 μl of 2% FBS media (JCV Turbo is a hybrid Mad-1/SVEΔ virus constructed by insertion of the regulatory region of SV40 into the regulatory region of the Mad-1 strain of JCV (Mad-1/SVE), Vacante et al., Virology 1989, 170: 353-361). The cells were incubated for an hour, after which another 65 uL aliquot of 1× concentrated drug in 2% FBS was added. […] The information is tabulated as % inhibition (as measured by the number and percentage of JCV positive cells).
JCV Infectivity Assay: SVG-A cells were seeded at 2,000 cells/well/0.075 ml of culture media in 96 flat-bottom well plate (Corning, N.Y.). […] Following a wash step with 1×PBS, primary antibody was detected with an Alexa-Fluor 488-labeled goat anti-mouse secondary antibody at 1:100 dilution in 1×PBS, cells were counterstained with DAPI at 1 μg/ml (0.05 ml/well) for 30 minutes at 37° C. […] Field images of each well were acquired and analyzed using the Cellomics ArrayScan (Thermo Scientific Inc, Waltham, Mass.) using the Target Activation software. […]

By inhibition is commonly meant the relative decrease from the control value, in per cent.

Consider `Nc1nc2ccc(OC(F)(F)F)cc2s1` [RILUZOLE], for which the inhibition at 10 µM is -12%.

Source of the values: patent US9233107B2, “Compositions and methods for the treatment of progressive multifocal leukoencephalopathy (PML)” (Biogen MA Inc., priority 2007, dated 2016).
